These are yes or no findings as the source states them, for the method shown. In cells and extracts the contact can be indirect. A result given as binding can be weak or reduced; the word gives no strength.
Target: T1, low-density lipoprotein receptor-related protein 3 (LRP3), endogenous in human frontal cortex (human (endogenous in frontal cortex)) (UniProt O75074)
T1 sequence: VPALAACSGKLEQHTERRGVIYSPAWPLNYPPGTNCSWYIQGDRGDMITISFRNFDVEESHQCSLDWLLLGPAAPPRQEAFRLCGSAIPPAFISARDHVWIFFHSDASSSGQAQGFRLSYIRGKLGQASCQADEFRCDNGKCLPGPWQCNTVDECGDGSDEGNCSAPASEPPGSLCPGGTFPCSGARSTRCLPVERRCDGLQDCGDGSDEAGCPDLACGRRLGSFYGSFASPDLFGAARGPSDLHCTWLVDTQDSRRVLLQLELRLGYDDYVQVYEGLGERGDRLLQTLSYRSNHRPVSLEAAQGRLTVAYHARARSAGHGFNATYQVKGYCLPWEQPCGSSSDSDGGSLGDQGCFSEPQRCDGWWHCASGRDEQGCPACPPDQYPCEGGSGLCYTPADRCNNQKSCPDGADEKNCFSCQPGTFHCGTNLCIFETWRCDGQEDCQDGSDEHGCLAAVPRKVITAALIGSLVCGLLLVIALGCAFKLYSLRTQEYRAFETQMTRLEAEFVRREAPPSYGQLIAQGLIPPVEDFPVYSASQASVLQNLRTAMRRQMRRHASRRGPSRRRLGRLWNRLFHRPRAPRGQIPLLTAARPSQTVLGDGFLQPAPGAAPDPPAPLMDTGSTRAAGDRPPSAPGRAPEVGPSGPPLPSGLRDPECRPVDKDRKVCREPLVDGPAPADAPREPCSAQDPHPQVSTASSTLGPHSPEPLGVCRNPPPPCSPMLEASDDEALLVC
Test: co-IP; human frontal cortex extracts (100 μL; MA and AD-related pathology cases) incubated 2.5 h at room temperature with magnetic beads coupled to an anti-C-terminal LRP3 antibody; mouse IgG as negative control; input, bound and unbound fractions blotted

Substance: amyloid precursor protein (APP), endogenous in human frontal cortex
- binding: binds
